Assay results reported in article PMC8262361.

Sequences of proteins named here, by UniProt entry; tags and fusion partners are left off. A change or cut given only in a name is not applied to a line headed by its entry.
UniProt P16070: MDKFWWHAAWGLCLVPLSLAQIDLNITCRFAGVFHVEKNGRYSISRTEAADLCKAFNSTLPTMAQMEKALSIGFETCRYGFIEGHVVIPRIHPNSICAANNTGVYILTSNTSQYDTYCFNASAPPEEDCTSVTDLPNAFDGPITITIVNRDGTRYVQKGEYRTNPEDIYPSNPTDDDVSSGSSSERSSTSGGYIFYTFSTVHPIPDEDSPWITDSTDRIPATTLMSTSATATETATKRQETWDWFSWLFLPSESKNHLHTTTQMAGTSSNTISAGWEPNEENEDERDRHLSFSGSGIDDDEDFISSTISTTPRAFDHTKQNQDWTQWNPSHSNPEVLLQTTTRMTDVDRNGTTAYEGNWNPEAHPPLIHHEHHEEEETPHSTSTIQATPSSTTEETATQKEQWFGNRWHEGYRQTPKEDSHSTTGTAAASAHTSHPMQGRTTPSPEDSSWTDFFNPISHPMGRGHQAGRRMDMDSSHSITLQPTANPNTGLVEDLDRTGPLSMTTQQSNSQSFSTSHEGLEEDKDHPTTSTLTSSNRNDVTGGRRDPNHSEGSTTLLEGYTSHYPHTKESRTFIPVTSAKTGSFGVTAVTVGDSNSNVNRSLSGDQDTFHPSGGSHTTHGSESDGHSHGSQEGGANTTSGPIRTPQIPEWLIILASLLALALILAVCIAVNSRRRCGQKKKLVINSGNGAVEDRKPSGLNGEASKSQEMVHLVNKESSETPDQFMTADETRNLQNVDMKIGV
UniProt P51532: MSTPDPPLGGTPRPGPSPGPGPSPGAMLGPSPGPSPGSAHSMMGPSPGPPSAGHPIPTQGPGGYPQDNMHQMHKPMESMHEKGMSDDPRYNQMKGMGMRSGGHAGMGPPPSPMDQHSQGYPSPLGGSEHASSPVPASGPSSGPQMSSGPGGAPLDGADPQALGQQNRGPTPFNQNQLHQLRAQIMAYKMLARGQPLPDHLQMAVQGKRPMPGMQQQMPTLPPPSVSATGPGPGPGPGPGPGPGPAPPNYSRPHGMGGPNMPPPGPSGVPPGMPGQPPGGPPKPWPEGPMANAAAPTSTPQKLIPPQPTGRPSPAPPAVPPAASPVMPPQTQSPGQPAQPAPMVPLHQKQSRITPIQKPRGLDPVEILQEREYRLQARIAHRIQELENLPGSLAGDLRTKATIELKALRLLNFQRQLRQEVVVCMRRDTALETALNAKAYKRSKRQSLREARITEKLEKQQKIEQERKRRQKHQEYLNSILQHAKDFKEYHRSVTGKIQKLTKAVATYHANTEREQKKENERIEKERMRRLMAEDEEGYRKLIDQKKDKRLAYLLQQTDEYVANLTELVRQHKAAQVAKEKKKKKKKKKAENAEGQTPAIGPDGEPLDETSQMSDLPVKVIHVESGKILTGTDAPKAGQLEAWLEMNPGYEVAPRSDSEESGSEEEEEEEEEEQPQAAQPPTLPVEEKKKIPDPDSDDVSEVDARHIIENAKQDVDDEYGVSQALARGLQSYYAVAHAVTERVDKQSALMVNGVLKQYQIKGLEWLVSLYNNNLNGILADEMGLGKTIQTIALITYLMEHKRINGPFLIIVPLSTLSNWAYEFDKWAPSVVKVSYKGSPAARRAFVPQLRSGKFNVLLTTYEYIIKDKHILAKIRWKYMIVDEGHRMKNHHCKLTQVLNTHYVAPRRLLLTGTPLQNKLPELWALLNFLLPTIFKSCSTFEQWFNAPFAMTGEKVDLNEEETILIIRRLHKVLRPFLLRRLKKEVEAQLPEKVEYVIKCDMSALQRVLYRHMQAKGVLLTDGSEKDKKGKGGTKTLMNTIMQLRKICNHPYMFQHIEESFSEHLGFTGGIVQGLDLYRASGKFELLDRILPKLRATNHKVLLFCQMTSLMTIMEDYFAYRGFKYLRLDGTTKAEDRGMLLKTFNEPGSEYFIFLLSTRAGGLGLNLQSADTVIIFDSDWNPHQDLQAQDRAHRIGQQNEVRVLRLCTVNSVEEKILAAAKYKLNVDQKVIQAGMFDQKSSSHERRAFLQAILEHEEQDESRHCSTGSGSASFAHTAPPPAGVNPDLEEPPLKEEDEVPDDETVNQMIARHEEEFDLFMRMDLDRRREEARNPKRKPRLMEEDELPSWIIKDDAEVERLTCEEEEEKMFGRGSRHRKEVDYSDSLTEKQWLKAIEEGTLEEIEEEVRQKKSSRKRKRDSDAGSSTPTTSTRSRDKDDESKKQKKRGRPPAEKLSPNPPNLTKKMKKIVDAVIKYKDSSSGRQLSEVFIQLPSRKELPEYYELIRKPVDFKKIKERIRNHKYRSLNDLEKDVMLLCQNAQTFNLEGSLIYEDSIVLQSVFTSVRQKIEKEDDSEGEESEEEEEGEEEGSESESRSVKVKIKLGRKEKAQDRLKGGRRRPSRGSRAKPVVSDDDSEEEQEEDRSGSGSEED

B1: zinc finger E-box binding homeobox 1 (Zeb1) (protein, UniProt P37275 1-1124)
chain: MADGPRCKRRKQANPRRNNVTNYNTVVETNSDSDDEDKLHIVEEESVTDAADCEGVPEDDLPTDQTVLPGRSSEREGNAKNCWEDDRKEGQEILGPEAQADEAGCTVKDDECESDAENEQNHDPNVEEFLQQQDTAVIFPEAPEEDQRQGTPEASGHDENGTPDAFSQLLTCPYCDRGYKRFTSLKEHIKYRHEKNEDNFSCSLCSYTFAYRTQLERHMTSHKSGRDQRHVTQSGCNRKFKCTECGKAFKYKHHLKEHLRIHSGEKPYECPNCKKRFSHSGSYSSHISSKKCISLIPVNGRPRTGLKTSQCSSPSLSASPGSPTRPQIRQKIENKPLQEQLSVNQIKTEPVDYEFKPIVVASGINCSTPLQNGVFTGGGPLQATSSPQGMVQAVVLPTVGLVSPISINLSDIQNVLKVAVDGNVIRQVLENNQANLASKEQETINASPIQQGGHSVISAISLPLVDQDGTTKIIINYSLEQPSQLQVVPQNLKKENPVATNSCKSEKLPEDLTVKSEKDKSFEGGVNDSTCLLCDDCPGDINALPELKHYDLKQPTQPPPLPAAEAEKPESSVSSATGDGNLSPSQPPLKNLLSLLKAYYALNAQPSAEELSKIADSVNLPLDVVKKWFEKMQAGQISVQSSEPSSPEPGKVNIPAKNNDQPQSANANEPQDSTVNLQSPLKMTNSPVLPVGSTTNGSRSSTPSPSPLNLSSSRNTQGYLYTAEGAQEEPQVEPLDLSLPKQQGELLERSTITSVYQNSVYSVQEEPLNLSCAKKEPQKDSCVTDSEPVVNVIPPSANPINIAIPTVTAQLPTIVAIADQNSVPCLRALAANKQTILIPQVAYTYSTTVSPAVQEPPLKVIQPNGNQDERQDTSSEGVSNVEDQNDSDSTPPKKKMRKTENGMYACDLCDKIFQKSSSLLRHKYEHTGKRPHECGICKKAFKHKHHLIEHMRLHSGEKPYQCDKCGKRFSHSGSYSQHMNHRYSYCKREAEERDSTEQEEAGPEILSNEHVGARASPSQGDSDERESLTREEDEDSEKEEEEEDKEMEELQEEKECEKPQGDEEEEEEEEEVEEEEVEEAENEGEEAKTEGLMKDDRAESQASSLGQKVGESSEQVSEEKTNEA

Legend:
[1] = target: CD44 (human (endogenous in IPF MPCs)) (UniProt P16070); test: affinity purification with mass spectrometry; CD44 immunoprecipitated with CD44 antibody (2C5, R&D Systems) from nuclear lysates (NE-PER) of CD44hi IPF MPCs treated with IL-8; isotype antibody as control; SDS-PAGE, silver stain, in-gel trypsin digestion, Orbitrap Velos
[2] = target: CD44 (human (endogenous in IPF MPCs)) (UniProt P16070); test: as above; remark: listed apart in the source

Row | Molecule | binding [1] | binding [2]
1 | Brahma-related gene 1 (Brg1) (from UniProt P51532 1-1647) | binds | 
2 | B1 |  | binds

Like-named read-outs stand apart in the source and are kept apart here. Results are given in words; binding and its absence hold for the method and conditions named. Binding seen in cells or lysates may run through a third protein. A yes stands for co-enrichment or nearness to the bait. Other partners may have been found.
